Test results reported in PubChem BioAssay (NCATS).
The inconclusive results got no clear call from the source. Potencies of inconclusive entries are doubtful fits and often do not repeat.

Amino acid sequences for entries named in this document (tags omitted).
UniProt Q14191, whole entry, looked up: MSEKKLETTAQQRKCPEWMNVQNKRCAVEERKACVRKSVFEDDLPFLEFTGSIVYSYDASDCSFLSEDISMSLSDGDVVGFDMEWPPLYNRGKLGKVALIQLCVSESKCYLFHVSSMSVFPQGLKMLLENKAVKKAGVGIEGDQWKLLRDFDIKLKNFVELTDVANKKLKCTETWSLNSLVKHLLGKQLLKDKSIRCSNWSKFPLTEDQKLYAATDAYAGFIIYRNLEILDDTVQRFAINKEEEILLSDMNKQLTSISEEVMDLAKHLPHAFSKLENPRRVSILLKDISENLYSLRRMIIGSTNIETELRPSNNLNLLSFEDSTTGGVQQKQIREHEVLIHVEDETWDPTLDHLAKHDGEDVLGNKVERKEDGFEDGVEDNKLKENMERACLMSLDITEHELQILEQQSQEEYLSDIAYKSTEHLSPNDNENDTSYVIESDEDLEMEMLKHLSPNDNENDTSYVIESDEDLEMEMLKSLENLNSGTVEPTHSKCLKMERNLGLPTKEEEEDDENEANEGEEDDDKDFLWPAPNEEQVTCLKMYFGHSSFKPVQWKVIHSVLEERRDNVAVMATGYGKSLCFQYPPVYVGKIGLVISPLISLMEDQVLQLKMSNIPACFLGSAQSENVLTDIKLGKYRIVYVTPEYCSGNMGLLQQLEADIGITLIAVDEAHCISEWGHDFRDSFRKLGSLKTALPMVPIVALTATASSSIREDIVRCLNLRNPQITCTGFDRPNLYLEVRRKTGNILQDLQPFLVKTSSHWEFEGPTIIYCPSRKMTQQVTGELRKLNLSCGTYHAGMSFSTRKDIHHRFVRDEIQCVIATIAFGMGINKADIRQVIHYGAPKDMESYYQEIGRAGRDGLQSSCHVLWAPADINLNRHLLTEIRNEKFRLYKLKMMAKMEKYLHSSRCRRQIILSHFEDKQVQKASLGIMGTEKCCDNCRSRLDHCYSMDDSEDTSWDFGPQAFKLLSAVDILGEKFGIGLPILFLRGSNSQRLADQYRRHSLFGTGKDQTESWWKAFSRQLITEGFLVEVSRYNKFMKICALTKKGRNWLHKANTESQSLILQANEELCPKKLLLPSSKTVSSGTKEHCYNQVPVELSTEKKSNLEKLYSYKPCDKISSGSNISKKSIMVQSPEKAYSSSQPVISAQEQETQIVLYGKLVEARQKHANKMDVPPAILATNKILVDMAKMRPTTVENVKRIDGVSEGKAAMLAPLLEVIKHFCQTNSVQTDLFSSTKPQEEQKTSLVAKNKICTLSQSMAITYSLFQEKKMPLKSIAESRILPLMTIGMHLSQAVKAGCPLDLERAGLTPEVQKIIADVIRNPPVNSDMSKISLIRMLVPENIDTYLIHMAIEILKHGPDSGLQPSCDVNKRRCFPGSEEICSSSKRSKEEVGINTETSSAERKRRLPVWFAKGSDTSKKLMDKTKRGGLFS

Biological target: Bifunctional 3'-5' exonuclease/ATP-dependent helicase WRN (Homo sapiens) (UniProt Q14191)
Test: qHTS for Inhibitors of WRN Helicase: Confirmatory Assay for Cherry-picked Compounds. (AID 720497); further: nearly all actives have a fitted effect of over 65% in size
Conditions: WRN helicase DNA unwinding, fluorescence kinetic; series mostly up to 57.1 µM; active means well fitted inhibition curve with a large enough effect; inconclusive means small, poorly fitted or top-dose-only effect; inactive means flat fitted curve, though single readings scatter
Outline: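 WRN (20 nM) was preincubated 15 min at RT with compound, then started with 100 nM forked duplex oligonucleotide and 2 mM ATP. Unwinding was read kinetically by red fluorescence (ex 525/em 598 nm), normalized to enzyme-free and uninhibited controls.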
Potency means the concentration at half of the fitted maximal effect.

Potency, inconclusive:
N=C1/C(=C\c2ccc(Br)o2)C(=O)N=C2SC(CC(=O)N3CCOCC3)=NN12 21.5 µM [inhibitor, partial curve]
COc1cc(NC(=O)c2noc3c2CCC3)c(OC)cc1Cl 24.1 µM [inhibitor, partial curve]
Cc1cccc2sc(NC(=O)C3CCN(S(=O)(=O)c4cc([N+](=O)[O-])ccc4Cl)CC3)nc12 21.5 µM [inhibitor, partial curve]
O=c1c(C(c2ccc(O)cc2)c2c(O)nc3n(c2=O)CCCS3)c(O)nc2n1CCCS2 19.2 µM [inhibitor, partial curve]
